Among the data in paper PMC7819943, “Rice protein-binding microarrays: a tool to detect cis-acting elements near promoter regions in rice” are binding signal values, retold here.

Amino acid sequences for entries named in this document (tags omitted).
UniProt Q0JBA9, entry or part of it: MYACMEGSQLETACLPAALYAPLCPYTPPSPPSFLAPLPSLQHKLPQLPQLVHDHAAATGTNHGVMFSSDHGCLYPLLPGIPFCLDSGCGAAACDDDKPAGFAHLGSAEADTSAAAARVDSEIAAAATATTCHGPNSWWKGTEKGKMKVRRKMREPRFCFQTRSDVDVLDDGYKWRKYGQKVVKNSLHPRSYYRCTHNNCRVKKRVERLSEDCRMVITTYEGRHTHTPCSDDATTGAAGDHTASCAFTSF

The other results are listed elsewhere or left out.

The target in this experiment is OsWRKY34 (Oryza sativa, UniProt Q0JBA9 1-250). The experiment is described as follows: protein-binding microarray (RPBM); PBS, 2% BSA, 51.3 ng/ul salmon testes DNA, 50 uM zinc acetate, 200 nM TF, 25 C, 1 h; high values mean tight binding. The conditions noted are these: protein: recombinant; tags: N-terminal polyhistidine and DsRed monomer fusion (pET32a); label: CyDye5-dUTP incorporated in the synthesized complementary strand; 3' TTTTT single-stranded linker to array surface; dsDNA, one strand shown. An outline of the steps:
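The binding signal is fluorescence intensity per feature, in arbitrary units, read on an Axon 4000B scanner. Polyhistidine- and DsRed-tagged transcription factors (N-terminal fusions) from E. coli BL21-CodonPlus were purified on Ni–NTA and applied at 200 nM for 1 h at 25 °C to a double-stranded, BSA-blocked custom Agilent array in buffer with 50 µM zinc acetate.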
As to “CGGATACTGTAATTAGTTTTTTTATTAGTGTTCAAACACCCGGAGTCACCTAGTGCAG”, the binding signal is 8470 fluorescence intensity (a.u.).

Regarding “GCGGTGCGTGACGGTGACCGGAGAGTCGGGGTGGGGCTGCCGGAGTCACCTAGTGCAG”, the binding signal was 10400 fluorescence intensity (a.u.).

For the sequence “GGCATCCACGTCGCGCTGTCCCGCGACGTCGCCGTCCTCACGGAGTCACCTAGTGCAG”, the binding signal was 8280 fluorescence intensity (a.u.).

Regarding “ATATATATATATATATATATATATATATATGTTCTTAGCACGGAGTCACCTAGTGCAG”, the binding signal is 8220 fluorescence intensity (a.u.).

For the sequence “CTTTTGTTCTTTTGTGTGCTAGTTCAATTTTCTTATCTAACGGAGTCACCTAGTGCAG”, the binding signal is 8060 fluorescence intensity (a.u.).

On to “CCATTTTCTCCTGCGTTCTCTTTCTTTCTTCGAGCCACTTCGGAGTCACCTAGTGCAG”, for which the binding signal was 8270 fluorescence intensity (a.u.).

Turning to “CATCTTCATCAGTTTCGCCTATGGACGTGTCATGTTATCTCGGAGTCACCTAGTGCAG”, the binding signal was 12900 fluorescence intensity (a.u.).

Consider “GATCGTCGTCCGTGTCCTTGCTCGATTTGCTCCCCATCTTCGGAGTCACCTAGTGCAG”, for which the binding signal is 8900 fluorescence intensity (a.u.).

Regarding “TCGATCACACACGGACACAGAGTCTCCGCCGCATTTTCTTCGGAGTCACCTAGTGCAG”, the binding signal was 8170 fluorescence intensity (a.u.).

Consider “CCTCTTTCCTCCTCCAAATTAATCTCATCCTAATTCTGTTCGGAGTCACCTAGTGCAG”, for which the binding signal is 12600 fluorescence intensity (a.u.).

Consider “CTATTTTATATCTTTTGCTTTGTTTTTGACCGCGGGAGGGCGGAGTCACCTAGTGCAG”, for which the binding signal is 9380 fluorescence intensity (a.u.).

For the sequence “GCCAGACCGCCACCGTCCGTTTCCACAACCGTGCCAGTGCCGGAGTCACCTAGTGCAG”, the binding signal was 10700 fluorescence intensity (a.u.).

Take “TTGTAAGTTAGGGACCTGTTGTATCTGATTTTTTGGTTGACGGAGTCACCTAGTGCAG”: the binding signal was 8210 fluorescence intensity (a.u.).

As to “TCCCACCTGTCTTCTCTGCTGACCAATCATCAGAAGGAGACGGAGTCACCTAGTGCAG”, the binding signal is 8440 fluorescence intensity (a.u.).

Take “TCTAATCTCTTGCCATTTCCTTGTGCCTCGCTTGCTCATCCGGAGTCACCTAGTGCAG”: the binding signal was 9860 fluorescence intensity (a.u.).

Take “ACTGTCCCATCGCTGCCAAGTGGTTTTGGCTTGTTCTTTCCGGAGTCACCTAGTGCAG”: the binding signal was 10700 fluorescence intensity (a.u.).

Turning to “ACGAGTCGTCGGGCCCACCTGTCACTCACTCTACGCGACTCGGAGTCACCTAGTGCAG”, the binding signal is 10600 fluorescence intensity (a.u.).

For the sequence “CATGGCAGTATAGAGCAATTTTTCCCCTGTTTTTGCTGACCGGAGTCACCTAGTGCAG”, the binding signal is 9920 fluorescence intensity (a.u.).

As to “TCGATCATGAATCTGGTTTAACTTTTAACGCTGTCACGCACGGAGTCACCTAGTGCAG”, the binding signal is 9170 fluorescence intensity (a.u.).

Turning to “ACCATCTTTTAAATCAGACCTCTCACCAATTTTGATATTTCGGAGTCACCTAGTGCAG”, the binding signal was 8230 fluorescence intensity (a.u.).

With “TAATCAGGGGTGAGGAGATTAGTTTGTTTCTAAAAATCATCGGAGTCACCTAGTGCAG”, the binding signal is 8180 fluorescence intensity (a.u.).

As to “ACCGCAAACATATTTCTTCTCTTTTTATATCTATAGCATCCGGAGTCACCTAGTGCAG”, the binding signal was 8060 fluorescence intensity (a.u.).

On to “GTGAAATCTCCTCTTGACCCCGCGATGACTACGCCGCACTCGGAGTCACCTAGTGCAG”, for which the binding signal is 8190 fluorescence intensity (a.u.).

For the sequence “GGTTTTTTATTGCCTGGTTATTTTTCCTGCCCGGTTTTTTCGGAGTCACCTAGTGCAG”, the binding signal was 10500 fluorescence intensity (a.u.).

As to “CTATATGTCTGTATATGACTTCGCAATCAGCCAATCAATTCGGAGTCACCTAGTGCAG”, the binding signal is 9200 fluorescence intensity (a.u.).

Turning to “CTTGCGGTTGCTTTTGTTCGTCTTCTCCCGGAGATTCGGCCGGAGTCACCTAGTGCAG”, the binding signal was 8310 fluorescence intensity (a.u.).

“TTAGTTATTATTAGTGCAGGTGGAGGTGGAGGGCTTGCATCGGAGTCACCTAGTGCAG”: the binding signal was 8150 fluorescence intensity (a.u.).

For “GTTGTGTTGTGCAAATTATGTGTATCTTGTAAAAAATCTTCGGAGTCACCTAGTGCAG”, the binding signal is 8270 fluorescence intensity (a.u.).

“GCATCTCTCGGCATCCACCGATCGGACCGGCCACCTCACACGGAGTCACCTAGTGCAG”: the binding signal is 8050 fluorescence intensity (a.u.).

With “TCCCTCGCACCCCGATCCCACCCGTCCATTTTCTCCCTCACGGAGTCACCTAGTGCAG”, the binding signal is 8570 fluorescence intensity (a.u.).

Consider “CTGTGGTCGGACCAGCCCGTGAAGGAAACCCGACGCTTTCCGGAGTCACCTAGTGCAG”, for which the binding signal is 8160 fluorescence intensity (a.u.).

With “GGGTTCAAAGTCTCATATGCTAACTATATACTTGTTACTGCGGAGTCACCTAGTGCAG”, the binding signal was 8120 fluorescence intensity (a.u.).

For the sequence “GCCTGTGTGCGGCTTGCTTGCTTCATTTTCAGCCGATTTTCGGAGTCACCTAGTGCAG”, the binding signal was 9760 fluorescence intensity (a.u.).

As for “TTGCACGGTTTTCTCGCTCGCCGCCACACGGTCTACGAGACGGAGTCACCTAGTGCAG”, the binding signal was 8240 fluorescence intensity (a.u.).

For “GCCAGCATACATGTGGCAGTGAGACCCTCTGGCACCTTCACGGAGTCACCTAGTGCAG”, the binding signal is 9160 fluorescence intensity (a.u.).

Regarding “TCGCCGTCTCTGGCCTCCCTTTGCCTCTCACCAACCGGCTCGGAGTCACCTAGTGCAG”, the binding signal was 9520 fluorescence intensity (a.u.).

For “TATTGCCATGTTGATTTGAAAAACATCCTCGTATTTTTCCCGGAGTCACCTAGTGCAG”, the binding signal is 9410 fluorescence intensity (a.u.).

“CCCTTTCTTACCTGTGCCGGCTTTAACCAACGTATTCCTCCGGAGTCACCTAGTGCAG”: the binding signal is 8460 fluorescence intensity (a.u.).

As to “TCTTCTCCTCTCTCCTCTCACTGACCCGCCCCGCCTCCTTCGGAGTCACCTAGTGCAG”, the binding signal was 8200 fluorescence intensity (a.u.).

Consider “TACTGTTCTTCATCCACCTTTTGTTTTCCATGAACAAAAACGGAGTCACCTAGTGCAG”, for which the binding signal is 9040 fluorescence intensity (a.u.).

With “TGCCACCACCGCCACCGCCAGCGAGCTGGATGAGCCAGCACGGAGTCACCTAGTGCAG”, the binding signal was 9060 fluorescence intensity (a.u.).

For the sequence “GGTTTTGTGATTTTGACACCCATTCAGGTTCGTTGTTTTTCGGAGTCACCTAGTGCAG”, the binding signal was 11900 fluorescence intensity (a.u.).
